Reference: the supplement of paper PMC12889115
The list shows a part of the results. Values are raw readings; no control value is given beside them.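 First-pass screen: polymyxin B was added at a level that permeabilizes the Salmonella outer membrane while sparing the inner membrane. DMSO wells, with and without polymyxin B, defined maximum growth. Because plates differed from one another, each plate's data were ranked separately and the compounds with the lowest OD600 were carried forward as hits.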

Test system: Salmonella enterica serovar Typhimurium SL1344
Experiment: bacterial growth OD600 after 18 h with compound and polymyxin B; higher = more bacterial growth (less inhibition)
Conditions: 50 µM, Mueller-Hinton broth

SMILES | bacterial growth OD600 (polymyxin B 0.75 µg/mL) | bacterial growth OD600 (polymyxin B 1 µg/mL)
CC(C)CNC(=O)C1CCCN(C2CCN(Cc3ccccc3)CC2)C1 (stereo unspecified) | 0.874 | 
CC(C)N(C)c1ccc(C(=O)N2CCC(Cn3cccn3)CC2)cn1 | 0.938 | 
COCC1CCN(C(=O)c2coc(COc3cccc(F)c3)n2)C1 (stereo unspecified) |  | 0.769
O=C(Nc1ccc(-c2nc3ccccc3o2)cc1)C1CCN(Cc2ccc(O)cc2)CC1 |  | 1.03
COc1cc(N2C[C@H]3OC(=O)N(CCc4cccc(Cl)c4)[C@H]3C2)ncn1 | 0.801 | 
COCCN(C)C(=O)c1coc(COc2cccc(F)c2F)n1 |  | 0.984
CN(C(=O)CCn1cncn1)C1CCCN(CCc2ccccc2)C1 (stereo unspecified) |  | 0.88
COc1ccc(C(=O)NC2CC2)c(OC2CCN(Cc3ccc(C)cc3)CC2)c1 |  | 1.04
COC(=O)c1ccccc1C(=O)N1CCCC(Nc2ccc(F)cc2)C1 (stereo unspecified) |  | 0.999
COc1ccccc1CCN1CCCC(CN(C)C(=O)C(=O)CC(C)C)C1 (stereo unspecified) |  | 0.846
CCOCCCNC(=O)C1CCCN1c1nc(C)c2ccc(S(C)(=O)=O)cc2n1 (stereo unspecified) | 0.809 | 
CCOc1ccc2nc(N3CCCC(C(=O)N4CCN(Cc5nccn5C)CC4)C3)nc(C)c2c1 (stereo unspecified) | 0.443 | 
O=C(NCc1cccnc1-n1ccnc1)c1ncoc1C1CC1 | 0.845 | 
COc1ccccc1Oc1ncccc1CNC(=O)c1ccc(C)s1 |  | 0.917
COCCNC(=O)c1ccc(OC)cc1OC1CCN(C/C(C)=C/c2ccco2)CC1 |  | 0.992
CCc1ccc(CN2CCC(N3CCC(C(=O)NCCc4ccccc4)CC3)CC2)o1 | 0.741 | 

SMILES | bacterial growth OD600 (polymyxin B 0.75 µg/mL) | bacterial growth OD600 (polymyxin B 1 µg/mL)
Cc1[nH]c2c(C(=O)N3CCC4(CC3)CC4C(=O)N3CCN(c4ccccn4)CC3)cccc2c1C (stereo unspecified) | 0.791 | 
O=C1CC(NC2CCSCC2)CN1C1CCCCCC1 (stereo unspecified) |  | 1.05
CCN1CC(CN(C)C(=O)c2cc(COc3ccc4sc(C)nc4c3)on2)CC1=O (stereo unspecified) |  | 0.927
O=C(NC1CC1)C1CCCN(C2CCN(Cc3cccc(F)c3)CC2)C1 (stereo unspecified) | 0.794 | 
CCCN1CCC(NC2CC(=O)N(Cc3ccccc3C(F)(F)F)C2)CC1 (stereo unspecified) |  | 0.879
COc1cc(OC)cc(C(=O)NCC2CCCN(C(=O)C3=CCCC3)C2)c1 (stereo unspecified) |  | 0.838
Cn1c(C2CCC2)nc2cc(C(=O)N3CCc4c(Cl)cccc4C3)cc(NC(=O)C3CCCO3)c21 (stereo unspecified) | 0.757 | 
CC(C)c1ccc(CN2CCCC3(CCN(C(=O)C4CCOCC4)C3)C2)cc1 (stereo unspecified) |  | 0.925
COc1ccc2cc(-c3n[nH]cc3CN3CCC(c4ccncc4)CC3)ccc2c1 |  | 0.696
CN(Cc1cc(C2CC2)[nH]n1)C(=O)c1cc(COc2cccc(F)c2)[nH]n1 |  | 1.04
COc1ccc(C(=O)N2CCCC2)c(OC2CCN(CCCC(F)(F)F)CC2)c1 |  | 1.15
O=C(Nc1ccc(-c2ccco2)cc1)C1CCCN(Cc2cccc3c2OCO3)C1 (stereo unspecified) |  | 0.776
CC(=O)Nc1cnn(-c2ccc(C(=O)N3CCC(c4ccccc4Cl)C3)cc2)c1 (stereo unspecified) | 0.004 | 
COc1ccc(-c2ccccc2NC(=O)C2CCCN2CC2CC2)cc1 (stereo unspecified) |  | 0.238
CCOC(=O)C1(CCOc2ccccc2)CCN(Cc2cccs2)CC1 |  | 0.793

A few values from above.
bacterial growth OD600 (polymyxin B 1 µg/mL), CCCN1CCC(NC2CC(=O)N(Cc3ccccc3C(F)(F)F)C2)CC1 (stereo unspecified) reads 0.879
bacterial growth OD600 (polymyxin B 1 µg/mL), COc1ccc2cc(-c3n[nH]cc3CN3CCC(c4ccncc4)CC3)ccc2c1 reads 0.696
